This is one part of the list.
What was measured:
Assay in all cases: log2 fold change, soluble protein after heating vs DMSO (PISA); higher = thermal stabilisation; K562 lysate, 10 uM; active = over 0.2 and 3.5 SD of the protein, either way, in both replicates (recomputed)
[1] = compound: CS(=O)(=O)CCNCc1ccc(-c2ccc3ncnc(Nc4ccc(OCc5cccc(F)c5)c(Cl)c4)c3c2)o1 [lapatinib]
Method in brief: (§1)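 Thermal stability, expressed as log-two fold change relative to solvent controls, is given from duplicates. Crude K562 extract in PBS pH 7.4 with 1 mM MgCl2, at 1 mg/mL protein, was treated with 10 μM compound for 30 min and heated in aliquots for 3 min across 48°C-58°C. After pooling, adjustment to 0.5% NP-40 at 4°C and centrifugation at 21,000xg for 90 min, supernatant protein was measured by TMTpro 16plex LC-MS/MS with channel sums equalised.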

Amino acid sequences for entries named in this document (tags omitted). A change or cut given only in a name is not applied to a line headed by its entry.
UniProt O60566, whole entry, looked up: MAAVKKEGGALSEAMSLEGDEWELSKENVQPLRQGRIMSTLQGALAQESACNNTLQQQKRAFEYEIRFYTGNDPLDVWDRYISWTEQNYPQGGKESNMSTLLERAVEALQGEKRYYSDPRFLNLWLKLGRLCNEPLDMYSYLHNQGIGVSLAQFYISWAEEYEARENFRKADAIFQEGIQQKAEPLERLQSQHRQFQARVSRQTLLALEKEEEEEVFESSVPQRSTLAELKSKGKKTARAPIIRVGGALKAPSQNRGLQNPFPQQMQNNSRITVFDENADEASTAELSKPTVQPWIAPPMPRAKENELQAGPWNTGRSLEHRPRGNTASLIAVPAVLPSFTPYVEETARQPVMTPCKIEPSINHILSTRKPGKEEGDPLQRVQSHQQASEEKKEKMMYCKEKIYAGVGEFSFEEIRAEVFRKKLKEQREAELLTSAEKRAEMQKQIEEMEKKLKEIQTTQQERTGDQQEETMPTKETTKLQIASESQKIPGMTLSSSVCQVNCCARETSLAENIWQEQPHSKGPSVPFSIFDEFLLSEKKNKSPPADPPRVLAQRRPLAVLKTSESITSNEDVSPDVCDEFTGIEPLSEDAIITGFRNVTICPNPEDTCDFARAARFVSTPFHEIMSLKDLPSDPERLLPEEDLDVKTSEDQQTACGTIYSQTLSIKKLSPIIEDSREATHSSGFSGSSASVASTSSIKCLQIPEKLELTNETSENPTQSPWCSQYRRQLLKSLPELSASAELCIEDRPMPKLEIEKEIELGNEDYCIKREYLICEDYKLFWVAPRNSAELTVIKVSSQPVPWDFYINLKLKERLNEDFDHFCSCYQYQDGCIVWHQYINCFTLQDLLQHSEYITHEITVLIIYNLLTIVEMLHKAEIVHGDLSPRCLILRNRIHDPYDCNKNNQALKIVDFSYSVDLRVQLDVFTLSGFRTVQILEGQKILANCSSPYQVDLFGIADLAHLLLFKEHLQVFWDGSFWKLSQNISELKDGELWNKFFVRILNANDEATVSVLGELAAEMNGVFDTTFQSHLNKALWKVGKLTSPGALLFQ
UniProt Q6ZSJ8: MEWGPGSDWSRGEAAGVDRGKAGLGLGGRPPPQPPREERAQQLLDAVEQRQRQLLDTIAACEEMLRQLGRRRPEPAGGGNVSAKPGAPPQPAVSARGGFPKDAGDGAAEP
UniProt Q96B23: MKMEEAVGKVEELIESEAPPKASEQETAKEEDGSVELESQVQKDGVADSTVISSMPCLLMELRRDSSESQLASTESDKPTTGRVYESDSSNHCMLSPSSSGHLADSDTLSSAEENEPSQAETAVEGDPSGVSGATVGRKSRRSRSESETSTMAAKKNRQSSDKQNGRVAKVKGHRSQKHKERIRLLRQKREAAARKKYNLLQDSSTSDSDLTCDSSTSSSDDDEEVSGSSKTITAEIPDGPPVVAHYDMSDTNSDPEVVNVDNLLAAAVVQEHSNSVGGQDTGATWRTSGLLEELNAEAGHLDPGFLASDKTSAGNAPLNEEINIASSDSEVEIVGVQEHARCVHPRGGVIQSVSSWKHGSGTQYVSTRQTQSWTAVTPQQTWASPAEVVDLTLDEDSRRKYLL
UniProt Q01518, whole entry, looked up: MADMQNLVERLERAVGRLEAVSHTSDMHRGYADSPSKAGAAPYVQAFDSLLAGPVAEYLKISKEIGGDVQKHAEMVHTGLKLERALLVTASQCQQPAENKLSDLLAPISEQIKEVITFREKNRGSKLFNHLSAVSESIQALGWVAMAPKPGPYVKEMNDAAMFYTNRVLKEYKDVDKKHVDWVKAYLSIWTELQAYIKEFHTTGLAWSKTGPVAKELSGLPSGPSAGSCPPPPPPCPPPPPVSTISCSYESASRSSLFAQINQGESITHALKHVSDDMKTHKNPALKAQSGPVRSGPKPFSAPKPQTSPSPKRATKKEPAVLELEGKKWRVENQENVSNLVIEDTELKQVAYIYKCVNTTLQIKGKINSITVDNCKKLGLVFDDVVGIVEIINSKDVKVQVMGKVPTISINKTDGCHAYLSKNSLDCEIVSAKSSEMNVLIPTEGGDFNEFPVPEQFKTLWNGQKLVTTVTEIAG
UniProt Q8TCD1: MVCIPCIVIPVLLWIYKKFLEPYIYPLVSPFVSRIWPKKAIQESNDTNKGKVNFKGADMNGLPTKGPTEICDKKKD
UniProt Q8N5I9: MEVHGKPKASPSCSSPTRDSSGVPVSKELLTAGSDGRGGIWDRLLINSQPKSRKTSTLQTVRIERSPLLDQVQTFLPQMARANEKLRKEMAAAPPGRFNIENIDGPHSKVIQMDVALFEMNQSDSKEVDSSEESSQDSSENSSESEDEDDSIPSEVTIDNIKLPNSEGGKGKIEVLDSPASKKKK
UniProt Q6UWU4: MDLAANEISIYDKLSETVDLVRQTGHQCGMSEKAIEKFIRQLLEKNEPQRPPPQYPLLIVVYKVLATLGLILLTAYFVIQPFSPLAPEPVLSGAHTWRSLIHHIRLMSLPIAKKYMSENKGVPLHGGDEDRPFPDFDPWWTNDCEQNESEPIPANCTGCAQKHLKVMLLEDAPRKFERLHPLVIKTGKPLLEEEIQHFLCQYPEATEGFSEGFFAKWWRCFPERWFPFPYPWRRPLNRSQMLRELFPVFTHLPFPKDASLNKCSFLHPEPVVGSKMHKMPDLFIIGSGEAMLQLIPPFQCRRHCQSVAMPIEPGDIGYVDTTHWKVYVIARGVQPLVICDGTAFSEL
UniProt P35219: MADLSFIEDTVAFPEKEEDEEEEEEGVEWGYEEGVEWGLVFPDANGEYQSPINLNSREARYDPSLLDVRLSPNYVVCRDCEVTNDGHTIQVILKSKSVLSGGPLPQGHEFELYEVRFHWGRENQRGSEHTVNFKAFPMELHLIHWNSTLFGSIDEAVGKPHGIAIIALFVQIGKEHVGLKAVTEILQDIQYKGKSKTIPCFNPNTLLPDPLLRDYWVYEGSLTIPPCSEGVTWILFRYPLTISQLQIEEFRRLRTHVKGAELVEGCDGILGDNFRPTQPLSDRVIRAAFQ
UniProt P47756, whole entry, looked up: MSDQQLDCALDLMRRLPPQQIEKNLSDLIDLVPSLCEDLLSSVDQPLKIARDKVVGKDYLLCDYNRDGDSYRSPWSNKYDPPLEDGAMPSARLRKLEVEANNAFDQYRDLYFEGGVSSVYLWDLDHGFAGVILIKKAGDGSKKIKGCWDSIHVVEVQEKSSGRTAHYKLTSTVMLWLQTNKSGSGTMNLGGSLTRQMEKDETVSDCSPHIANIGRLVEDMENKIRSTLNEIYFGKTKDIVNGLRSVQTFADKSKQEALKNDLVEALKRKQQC
UniProt Q9HB71, whole entry, looked up: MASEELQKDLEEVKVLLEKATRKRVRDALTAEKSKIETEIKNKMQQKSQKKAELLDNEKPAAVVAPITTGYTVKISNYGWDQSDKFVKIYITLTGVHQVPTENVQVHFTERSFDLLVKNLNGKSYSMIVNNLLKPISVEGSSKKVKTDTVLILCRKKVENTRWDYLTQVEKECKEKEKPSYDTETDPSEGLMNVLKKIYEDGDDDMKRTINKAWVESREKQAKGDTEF
UniProt O43683: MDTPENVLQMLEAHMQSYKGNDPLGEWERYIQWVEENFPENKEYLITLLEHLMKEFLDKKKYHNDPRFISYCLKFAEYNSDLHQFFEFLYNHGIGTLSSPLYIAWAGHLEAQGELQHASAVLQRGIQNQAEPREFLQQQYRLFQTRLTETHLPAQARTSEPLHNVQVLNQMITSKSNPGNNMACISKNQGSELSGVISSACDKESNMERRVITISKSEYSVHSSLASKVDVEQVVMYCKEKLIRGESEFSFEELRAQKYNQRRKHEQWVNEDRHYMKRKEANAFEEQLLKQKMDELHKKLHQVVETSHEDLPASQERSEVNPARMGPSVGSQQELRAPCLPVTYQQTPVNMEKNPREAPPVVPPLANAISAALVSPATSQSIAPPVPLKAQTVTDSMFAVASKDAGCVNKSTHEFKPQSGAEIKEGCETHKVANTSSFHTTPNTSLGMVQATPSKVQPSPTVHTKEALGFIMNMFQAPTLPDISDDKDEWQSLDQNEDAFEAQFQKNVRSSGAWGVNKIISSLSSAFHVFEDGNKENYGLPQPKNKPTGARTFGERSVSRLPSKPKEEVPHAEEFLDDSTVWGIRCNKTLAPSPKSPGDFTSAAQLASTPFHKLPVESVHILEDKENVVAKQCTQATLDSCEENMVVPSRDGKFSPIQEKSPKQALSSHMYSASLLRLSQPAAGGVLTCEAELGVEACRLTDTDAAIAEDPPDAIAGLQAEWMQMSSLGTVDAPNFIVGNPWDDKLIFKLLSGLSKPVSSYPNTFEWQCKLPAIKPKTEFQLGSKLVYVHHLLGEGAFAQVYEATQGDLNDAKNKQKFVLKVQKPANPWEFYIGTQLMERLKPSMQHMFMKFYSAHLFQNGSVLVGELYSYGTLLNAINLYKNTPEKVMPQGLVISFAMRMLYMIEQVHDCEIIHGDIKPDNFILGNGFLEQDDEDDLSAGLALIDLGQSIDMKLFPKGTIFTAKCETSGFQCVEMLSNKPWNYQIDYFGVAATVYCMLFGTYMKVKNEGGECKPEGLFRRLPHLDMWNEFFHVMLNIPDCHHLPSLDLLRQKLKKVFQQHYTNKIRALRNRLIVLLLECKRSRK
UniProt O14523: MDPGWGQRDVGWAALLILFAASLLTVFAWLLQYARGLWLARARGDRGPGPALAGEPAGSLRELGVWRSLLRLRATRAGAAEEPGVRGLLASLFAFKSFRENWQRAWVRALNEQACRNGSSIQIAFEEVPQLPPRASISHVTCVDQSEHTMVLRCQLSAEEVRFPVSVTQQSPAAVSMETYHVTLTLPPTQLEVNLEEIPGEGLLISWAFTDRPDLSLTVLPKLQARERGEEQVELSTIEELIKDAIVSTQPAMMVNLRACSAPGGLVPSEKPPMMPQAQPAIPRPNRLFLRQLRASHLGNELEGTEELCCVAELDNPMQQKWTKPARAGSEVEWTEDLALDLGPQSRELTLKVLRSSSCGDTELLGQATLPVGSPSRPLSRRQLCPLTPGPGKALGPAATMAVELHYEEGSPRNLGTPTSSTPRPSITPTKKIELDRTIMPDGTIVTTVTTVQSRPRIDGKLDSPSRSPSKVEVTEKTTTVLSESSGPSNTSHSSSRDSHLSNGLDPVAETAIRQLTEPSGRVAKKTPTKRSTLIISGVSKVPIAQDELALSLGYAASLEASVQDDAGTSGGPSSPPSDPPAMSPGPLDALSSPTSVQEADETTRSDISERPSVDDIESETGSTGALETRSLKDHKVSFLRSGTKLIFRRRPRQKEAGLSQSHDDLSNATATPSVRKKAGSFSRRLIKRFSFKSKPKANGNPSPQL
UniProt Q9Y2V0: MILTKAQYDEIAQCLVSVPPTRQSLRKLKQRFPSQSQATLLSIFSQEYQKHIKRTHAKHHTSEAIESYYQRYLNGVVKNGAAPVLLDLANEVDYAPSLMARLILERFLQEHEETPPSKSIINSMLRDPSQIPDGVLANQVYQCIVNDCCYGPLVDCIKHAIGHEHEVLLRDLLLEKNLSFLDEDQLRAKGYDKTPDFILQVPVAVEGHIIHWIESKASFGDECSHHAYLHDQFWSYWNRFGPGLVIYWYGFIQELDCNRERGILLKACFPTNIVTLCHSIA
UniProt Q9BV19: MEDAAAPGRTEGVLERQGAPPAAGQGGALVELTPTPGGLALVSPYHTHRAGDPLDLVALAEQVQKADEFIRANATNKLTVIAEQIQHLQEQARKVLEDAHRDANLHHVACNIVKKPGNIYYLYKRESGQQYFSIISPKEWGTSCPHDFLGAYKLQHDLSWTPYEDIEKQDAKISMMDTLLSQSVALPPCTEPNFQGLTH
UniProt Q9H3H3: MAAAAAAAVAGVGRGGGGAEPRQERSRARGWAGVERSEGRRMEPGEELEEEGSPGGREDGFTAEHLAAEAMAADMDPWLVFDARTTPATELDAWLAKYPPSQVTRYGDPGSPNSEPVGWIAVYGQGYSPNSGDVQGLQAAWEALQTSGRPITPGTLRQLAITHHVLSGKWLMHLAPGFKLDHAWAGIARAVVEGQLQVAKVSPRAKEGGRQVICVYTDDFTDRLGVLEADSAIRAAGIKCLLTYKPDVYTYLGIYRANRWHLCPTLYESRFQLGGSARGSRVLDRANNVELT

[2] = compound: CS(=O)(=O)N1CCN(Cc2cc3nc(-c4cccc5[nH]ncc45)nc(N4CCOCC4)c3s2)CC1 [pictilisib]
Method in brief: as §1

[3] = compound: C[C@@H](Oc1cc(-c2cnn(C3CCNCC3)c2)cnc1N)c1c(Cl)ccc(F)c1Cl [crizotinib]
Method in brief: as §1

[4] = compound: C[C@H](C1=CC=C(C=C1)C(=O)NC2=C3C=CNC3=NC=C2)N
Method in brief: as §1

[5] = compound: C[C@H](Nc1ncnc2nc[nH]c12)c1cc2cccc(Cl)c2c(=O)n1-c1ccccc1 [duvelisib]
Method in brief: as §1

[6] = compound: Cc1cc(Nc2cc(CN3CCOCC3)c3nc(C)c(Cc4ccc(Cl)cc4F)n3n2)n[nH]1 [gandotinib]
Method in brief: as §1

[7] = compound: Cc1cc(Nc2cc(N3CCN(C)CC3)nc(Sc3ccc(NC(=O)C4CC4)cc3)n2)n[nH]1 [tozasertib]
Method in brief: as §1

[8] = compound: Cc1ccc(-n2nc(C(C)(C)C)cc2NC(=O)Nc2ccc(OCCN3CCOCC3)c3ccccc23)cc1 [doramapimod]
Method in brief: as §1

[9] = compound: Cc1ccc(NC(=O)c2ccc(CN3CC[C@H](N(C)C)C3)c(C(F)(F)F)c2)cc1Nc1nccc(-c2cncnc2)n1 [bafetinib]
Method in brief: as §1

[10] = compound: Cc1cccc(CC(=O)N2CCc3c2ccc(-c2cn(C)c4ncnc(N)c24)c3F)n1
Method in brief: as §1

[11] = compound: Cc1cn(-c2cc(NC(=O)c3ccc(C)c(Nc4nccc(-c5cccnc5)n4)c3)cc(C(F)(F)F)c2)cn1 [nilotinib]
Method in brief: as §1

[12] = compound: Cc1nc(Nc2n[nH]c3c2CN(C(=O)N[C@H](CN(C)C)c2ccccc2)C3(C)C)c2sccc2n1
Method in brief: as §1

[13] = compound: Cc1nc(Nc2ncc(C(=O)Nc3c(C)cccc3Cl)s2)cc(N2CCN(CCO)CC2)n1 [dasatinib]
Method in brief: as §1

[14] = compound: Cc1ncc(-c2ccnc(Nc3ccc(S(C)(=O)=O)cc3)n2)n1C(C)C
Method in brief: as §1

[15] = compound: Cn1cc(-c2ccc3c(c2)CCN3C(=O)Cc2cccc(C(F)(F)F)c2)c2c(N)ncnc21
Method in brief: as §1

[16] = compound: Cn1cc(CNCC2CCN(c3ncc(C(=O)NO)cn3)CC2)c2ccccc21 [quisinostat]
Method in brief: as §1

[17] = compound: Cn1cncc1[C@@](N)(c1ccc(Cl)cc1)c1ccc2c(c1)c(-c1cccc(Cl)c1)cc(=O)n2C [tipifarnib]
Method in brief: as §1

[18] = compound: NC(=O)Nc1cc(-c2cccc(F)c2)sc1C(=O)N[C@H]1CCCNC1
Method in brief: as §1

[19] = compound: NC(=O)c1cnc(N[C@@H]2CCCC[C@@H]2N)nc1Nc1cccc(-n2nccn2)c1
Method in brief: as §1

[20] = compound: NC1(c2ccc(-c3nc4ccn5c(=O)[nH]nc5c4cc3-c3ccccc3)cc2)CCC1
Method in brief: as §1

| Target | log2 fold change [1] | log2 fold change [2] | log2 fold change [3] | log2 fold change [4] | log2 fold change [5] | log2 fold change [6] | log2 fold change [7] | log2 fold change [8] | log2 fold change [9] | log2 fold change [10] | log2 fold change [11] | log2 fold change [12] | log2 fold change [13] | log2 fold change [14] | log2 fold change [15] | log2 fold change [16] | log2 fold change [17] | log2 fold change [18] | log2 fold change [19] | log2 fold change [20] |
| --- | --- | --- | --- | --- | --- | --- | --- | --- | --- | --- | --- | --- | --- | --- | --- | --- | --- | --- | --- | --- |
| BUB1B isoform 3 (UniProt O60566) | inactive: 0.009 | inactive: -0.038 | inactive: -0.059 | inactive: 0.007 | inactive: 0.024 | inactive: -0.04 | inactive: -0.01 | inactive: 0.019 | inactive: -0.029 | inactive: 0.035 | inactive: 0.007 | inactive: -0.012 | inactive: -0.015 | inactive: 0.014 | inactive: 0.024 | inactive: -0.076 | inactive: -0.013 | inactive: 0.028 | inactive: -0.003 | inactive: -0.004 |
| C1orf122 (UniProt Q6ZSJ8) | inactive: 0.049 | inactive: -0.011 | inactive: -0.104 | inactive: -0.031 | inactive: 0.025 | inactive: 0.04 | inactive: -0.013 | inactive: 0.018 | inactive: 0.042 | inactive: -0.019 | inactive: 0.058 | inactive: -0.018 | inactive: -0.033 | inactive: 0.065 | inactive: -0.097 | inactive: -0.068 | inactive: 0.124 | inactive: -0.008 | inactive: 0.002 | inactive: 0.022 |
| C18orf25 (UniProt Q96B23) | inactive: 0.017 | inactive: -0.003 | inactive: -0.049 | inactive: 0.022 | inactive: -0.046 | inactive: 0.019 | inactive: -0.029 | inactive: 0.019 | inactive: -0.023 | inactive: -0.098 | inactive: 0.139 | inactive: -0.014 | inactive: -0.022 | inactive: -0.018 | inactive: 0.082 | inactive: -0.007 | inactive: 0.003 | inactive: 0 | inactive: 0.011 | inactive: -0.008 |
| CAP1 (UniProt Q01518) | inactive: -0.027 | inactive: 0.011 | inactive: -0.009 | inactive: -0.005 | inactive: -0.023 | inactive: -0.004 | inactive: -0.04 | inactive: -0.001 | inactive: 0.017 | inactive: -0.029 | inactive: 0.015 | inactive: -0.011 | inactive: -0.029 | inactive: 0.004 | inactive: -0.027 | inactive: 0.014 | inactive: 0.018 | inactive: -0.008 | inactive: -0.028 | inactive: -0.01 |
| C18orf32 (UniProt Q8TCD1) | inactive: -0.012 | inactive: 0.041 | inactive: -0.07 | inactive: -0.093 | inactive: -0.203 | inactive: 0.001 | inactive: -0.011 | inactive: -0.01 | inactive: -0.04 | inactive: 0.047 | inactive: 0.058 | inactive: -0.078 | inactive: -0.026 | inactive: 0.072 | inactive: 0.167 | inactive: 0.027 | inactive: 0.093 | inactive: -0.11 | inactive: -0.084 | inactive: 0.062 |
| C12orf45 (UniProt Q8N5I9) | inactive: -0.027 | inactive: -0.031 | inactive: 0.042 | active: -0.269 | inactive: -0.014 | inactive: 0.148 | inactive: -0.044 | inactive: -0.023 | inactive: 0.001 | inactive: 0.072 | inactive: -0.026 | inactive: -0.003 | inactive: 0.019 | inactive: -0.017 | inactive: 0.035 | inactive: -0.019 | inactive: -0.014 | inactive: -0.015 | inactive: 0 | inactive: 0.024 |
| C6orf89 isoform 2 (UniProt Q6UWU4) | inactive: -0.099 | inactive: 0.046 | inactive: 0.015 | inactive: -0.011 | inactive: 0 | inactive: 0 | inactive: 0.024 | inactive: 0.009 | inactive: -0.082 | inactive: -0.01 | inactive: 0.009 | inactive: 0.102 | inactive: 0.017 | inactive: 0.018 | inactive: -0.041 | inactive: 0.081 | inactive: -0.091 | inactive: -0.02 | inactive: 0.063 | inactive: 0.027 |
| CA8 (UniProt P35219) | inactive: 0.007 | inactive: -0.009 | inactive: -0.02 | inactive: -0.034 | inactive: 0.031 | inactive: 0.02 | inactive: -0.005 | inactive: 0.003 | inactive: 0.009 | inactive: -0.037 | inactive: 0.01 | inactive: -0.072 | inactive: 0.005 | inactive: -0.038 | inactive: -0.009 | inactive: -0.035 | inactive: 0.006 | inactive: 0.028 | inactive: -0.001 | inactive: -0.007 |
| CAPZB (UniProt P47756) | inactive: -0.014 | inactive: 0.001 | inactive: 0.035 | inactive: 0.148 | inactive: 0.001 | inactive: -0.017 | inactive: -0.019 | inactive: -0.012 | inactive: 0.024 | inactive: -0.061 | inactive: 0.005 | inactive: -0.018 | inactive: 0.028 | inactive: 0.013 | inactive: -0.015 | inactive: 0.035 | inactive: 0.019 | inactive: -0.024 | inactive: -0.015 | inactive: -0.01 |
| CACYBP (UniProt Q9HB71) | inactive: 0.004 | inactive: 0.012 | inactive: 0.032 | inactive: -0.029 | inactive: 0.018 | inactive: 0.023 | inactive: -0.031 | inactive: -0.012 | inactive: 0.066 | inactive: -0.013 | inactive: -0.016 | inactive: -0.005 | inactive: 0.031 | inactive: -0.011 | inactive: -0.013 | inactive: 0.011 | inactive: 0.011 | inactive: 0.006 | inactive: -0.019 | inactive: 0.017 |
| BUB1 (UniProt O43683) | inactive: -0.021 | inactive: 0.04 | inactive: -0.2 | inactive: -0.208 | inactive: 0.001 | inactive: 0.188 | inactive: 0.07 | inactive: 0.016 | inactive: -0.183 | inactive: 0.255 | inactive: 0.018 | inactive: -0.038 | inactive: -0.144 | inactive: 0.115 | inactive: -0.035 | inactive: -0.273 | inactive: -0.037 | inactive: 0.088 | inactive: 0.063 | inactive: -0.06 |
| C2CD2L (UniProt O14523) | inactive: -0.077 | inactive: -0.062 | inactive: -0.061 | inactive: -0.052 | inactive: -0.096 | inactive: 0.016 | inactive: 0.012 | inactive: 0.004 | inactive: -0.001 | inactive: 0.051 | inactive: 0.006 | inactive: 0.022 | inactive: -0.099 | inactive: 0.007 | inactive: 0.02 | inactive: -0.079 | inactive: -0.088 | inactive: -0.006 | inactive: 0.015 | inactive: 0.046 |
| C15orf41 (UniProt Q9Y2V0) | inactive: -0.078 | inactive: 0.007 | inactive: -0.033 | inactive: 0.03 | inactive: 0.059 | inactive: 0.002 | inactive: 0.102 | inactive: -0.035 | inactive: 0.009 | inactive: -0.017 | inactive: -0.041 | inactive: 0 | inactive: 0.09 | inactive: 0.038 | inactive: -0.036 | inactive: -0.023 | inactive: -0.014 | inactive: 0.076 | inactive: 0.024 | inactive: 0 |
| C1orf50 (UniProt Q9BV19) | inactive: 0.051 | inactive: -0.108 | inactive: 0.021 | inactive: 0.069 | inactive: -0.091 | inactive: 0 | inactive: 0.095 | inactive: -0.033 | inactive: -0.116 | inactive: -0.02 | inactive: 0.05 | inactive: -0.065 | inactive: 0.005 | inactive: 0.125 | inactive: -0.049 | inactive: 0.167 | inactive: 0.052 | inactive: -0.02 | inactive: -0.026 | inactive: 0.024 |
| C11orf68 isoform 3 (UniProt Q9H3H3) | inactive: 0.021 | inactive: 0.026 | inactive: -0.032 | inactive: -0.039 | inactive: 0.014 | inactive: 0.032 | inactive: -0.003 | inactive: 0.061 | inactive: -0.02 | inactive: 0.028 | inactive: -0.029 | inactive: -0.014 | inactive: -0.009 | inactive: -0.019 | inactive: -0.024 | inactive: 0.014 | inactive: -0.036 | inactive: -0.027 | inactive: -0.033 | inactive: -0.029 |

Reformatted: results already given
Target	log2 fold change [1]	log2 fold change [2]	log2 fold change [3]	log2 fold change [4]	log2 fold change [5]	log2 fold change [6]	log2 fold change [7]	log2 fold change [8]	log2 fold change [9]	log2 fold change [10]	log2 fold change [11]	log2 fold change [12]	log2 fold change [13]	log2 fold change [14]	log2 fold change [15]	log2 fold change [16]	log2 fold change [17]	log2 fold change [18]	log2 fold change [19]	log2 fold change [20]
BUB1B isoform 3 (UniProt O60566)	inactive: 0.009	inactive: -0.038	inactive: -0.059	inactive: 0.007	inactive: 0.024	inactive: -0.04	inactive: -0.01	inactive: 0.019	inactive: -0.029	inactive: 0.035	inactive: 0.007	inactive: -0.012	inactive: -0.015	inactive: 0.014	inactive: 0.024	inactive: -0.076	inactive: -0.013	inactive: 0.028	inactive: -0.003	inactive: -0.004
C1orf122 (UniProt Q6ZSJ8)	inactive: 0.049	inactive: -0.011	inactive: -0.104	inactive: -0.031	inactive: 0.025	inactive: 0.04	inactive: -0.013	inactive: 0.018	inactive: 0.042	inactive: -0.019	inactive: 0.058	inactive: -0.018	inactive: -0.033	inactive: 0.065	inactive: -0.097	inactive: -0.068	inactive: 0.124	inactive: -0.008	inactive: 0.002	inactive: 0.022

— the supplement of paper PMC10849652
